Measurements reported in publication doi:10.1101/2020.03.03.971846.
These are yes or no findings as the source states them, for the method shown. For some of these results: In cells and extracts the contact can be indirect. Some entries that bind do so weakly or less than the wild type.

Chains of the proteins cited; added tags and fusions are not shown. Lines headed by an entry give the natural chain unless they say otherwise; changes in a name come on top.
UniProt P21728: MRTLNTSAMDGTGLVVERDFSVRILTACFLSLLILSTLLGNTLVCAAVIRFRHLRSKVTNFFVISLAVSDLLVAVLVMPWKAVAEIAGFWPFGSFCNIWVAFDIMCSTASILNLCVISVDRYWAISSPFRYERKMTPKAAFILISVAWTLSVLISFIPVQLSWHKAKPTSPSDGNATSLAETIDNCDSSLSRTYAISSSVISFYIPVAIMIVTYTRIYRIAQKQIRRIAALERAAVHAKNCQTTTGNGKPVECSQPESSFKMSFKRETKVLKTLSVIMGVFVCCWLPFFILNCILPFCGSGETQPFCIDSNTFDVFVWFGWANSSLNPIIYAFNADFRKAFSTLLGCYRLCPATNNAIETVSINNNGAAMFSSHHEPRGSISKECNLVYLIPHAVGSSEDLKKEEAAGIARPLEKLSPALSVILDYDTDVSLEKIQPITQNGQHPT
UniProt P32120: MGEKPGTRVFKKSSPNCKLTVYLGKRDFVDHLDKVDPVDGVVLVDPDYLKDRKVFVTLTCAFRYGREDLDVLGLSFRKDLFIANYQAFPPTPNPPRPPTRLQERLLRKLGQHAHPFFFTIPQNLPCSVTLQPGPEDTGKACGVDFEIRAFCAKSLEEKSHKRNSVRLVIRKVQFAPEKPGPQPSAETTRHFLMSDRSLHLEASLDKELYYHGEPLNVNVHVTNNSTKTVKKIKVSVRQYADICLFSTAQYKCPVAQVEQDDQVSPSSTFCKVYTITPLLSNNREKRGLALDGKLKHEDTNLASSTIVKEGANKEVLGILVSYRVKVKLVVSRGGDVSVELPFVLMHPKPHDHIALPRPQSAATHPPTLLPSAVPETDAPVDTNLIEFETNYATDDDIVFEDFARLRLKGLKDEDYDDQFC

Experiments:
[1] = target: D1R^T428A/S431A/T439A (Rluc8-tagged) (human) (UniProt P21728); assay: FRET or BRET
[2] = target: D1R^T428E/S431E/T439E (Rluc8-tagged) (human) (UniProt P21728); assay: FRET or BRET
[3] = target: D1R^A238-E252 peptide, native sequence (human) (UniProt P21728); assay: peptide or protein array
[4] = target: D1R^E252-R266 peptide, native sequence (human) (UniProt P21728); assay: peptide or protein array

Substance | binding [1] | binding [2] | binding [3] | binding [4]
Venus-arrestin-3 (from UniProt P32120 1-420) | binds | binds |  | 
arrestin-3 (from UniProt P32120 1-420) |  |  | binds weakly | binds weakly
